Laboratory results published in PubChem BioAssay AID1347076 (National Center for Advancing Translational Sciences (NCATS), 2019).
About 13,000 (3.2%) of roughly 400,000 compounds were called active. Inconclusive means that the source gave no clear call. Such entries were picked first, then a sample of the others. Calls follow the shape of the dose curve; as a rule, active = well fitted cell-killing curve with a large enough effect; inconclusive = small, poorly fitted or top-dose-only effect, or effect the other way; inactive = flat fitted curve, though single readings scatter. Potencies of inconclusive entries are doubtful fits and often do not repeat.
Potency is read from the fitted curve at half-maximal effect.

Assay: qHTS assay for MDR1-selective chemotherapeutics: Primary screen using the drug-selected MDR subline cells KB-V1; also: nearly all actives have a fitted effect of over 60% in size
Conditions: KB-V1 MDR cells viability, CellTiter-Glo, 72 h; series mostly up to 46.1 µM
Summary of the method: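 Cytotoxicity via CellTiter-Glo luminescence after 72 h compound exposure at 37 degrees C. Cells: drug-selected KB-V1 line, DMEM phenol-red free plus 10% FBS. Compounds tested at multiple concentrations; normalized data fitted to concentration-effect curves.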
In the case of `O=C1N/C(=N\N=C\c2ccc3ncccc3c2)SC1Cc1ccc(SC(F)F)cc1` (stereo not given), the Potency is reported as inconclusive: 8.2 µM [cytotoxic, partial curve]. For `CCn1nc(C)c2c(-c3ccccc3)cc(=O)n(C(C)C(=O)Nc3cccc(F)c3)c21` (stereo not given), the Potency was inconclusive: 29.1 µM [cytotoxic, single point]. With `CCOC(=O)C1CCN(Cc2cc(C(C)C)c(O)c(C(C)C)c2)CC1` the Potency was inconclusive: 20.6 µM [cytotoxic, partial curve, poor fit]. With `CC(C)C1=NN2C(=N)CC(=O)N=C2S1` the Potency was “inactive”. In the case of `O=C(O)c1sccc1Oc1ccc(NS(=O)(=O)c2ccccc2)cc1`, the Potency is reported as inconclusive: 2.06 µM [rising, single point]. With `Cc1onc(-c2ccccc2Cl)c1C(=O)NCCCc1ccccc1` the Potency was inconclusive: 4.61 µM [cytotoxic, partial curve, poor fit]. With `O=C(O)c1cccc(CN2C(=O)SC(Nc3ccccc3)C2=O)c1` (stereo not given) the Potency was “inactive”. For `O=C(O)c1ccc(N=Cc2c(O)ccc3oc4c(c23)CCCC4)cc1`, the Potency was “inactive”. With `COC(=O)C1CCN(C(=O)c2c(-c3ccccc3Cl)noc2C)CC1` the Potency was inconclusive: 0.0052 µM [rising, full curve]. For `Cc1ccc(C2=CC(c3ccccc3C)n3c(nc4ccccc43)N2)cc1` (stereo not given), the Potency was “inactive”. In the case of `COc1cc(C(=O)N2CCN(c3ccccc3O)CC2)ccc1OCC(=O)N1CCOCC1`, the Potency is reported as inconclusive: 29.1 µM [rising, single point]. In the case of `CCOC(=O)/C(=N\Nc1ccc(Br)cc1)N1CCN(c2ccccc2OC)CC1`, the Potency is reported as inconclusive: 11.6 µM [cytotoxic, partial curve]. In the case of `CCCCN(C(=O)CN1CCOCC1)c1c(N)n(CC(C)C)c(=O)[nH]c1=O`, the Potency is reported as inconclusive: 16.4 µM [rising, partial curve, poor fit]. With `CCOc1cc(N2CCOCC2)c(OCC)cc1NC(=O)c1ccccc1` the Potency was inconclusive: 23.1 µM [cytotoxic, partial curve, poor fit]. With `COc1cccc(CN2CCN(CC(=O)NCCc3ccccc3)CC2)c1` the Potency was inconclusive: 11.6 µM [cytotoxic, partial curve]. For `CCCCCCCN1C(Nc2ccccc2)=NC[C@@H]1CC(C)C`, the Potency was inconclusive: 2.59 µM [rising, full curve, poor fit]. In the case of `N#CC1=C(N)Oc2cc(N)ccc2C1c1cccc(F)c1` (stereo not given), the Potency is reported as inconclusive: 3.66 µM [cytotoxic, partial curve, poor fit]. For `NS(=O)(=O)c1ccc(Nc2c([N+](=O)[O-])cncc2[N+](=O)[O-])cc1`, the Potency was “inactive”. In the case of `CCC(Oc1cc(Cl)ccc1Cl)C(=O)N1CCCN(C)CC1` (stereo not given), the Potency is reported as inconclusive: 13 µM [cytotoxic, partial curve]. In the case of `C/C(=N\NC(=O)CSc1nc2ccccc2o1)c1ccc(O)cc1`, the Potency is reported as “inactive”. In the case of `O=C(Nc1ccc(F)cc1)c1cc2ccccc2o1`, the Potency is reported as inconclusive: 18.4 µM [cytotoxic, single point]. With `C=CCNc1nc(NCCNC(C)=O)c2sc(-c3ccccc3)cc2n1` the Potency was “inactive”. For `COc1ccc2c(O)c(-c3c(C)cc(C)cc3C)c(=O)[nH]c2c1`, the Potency was inconclusive: 23.1 µM [cytotoxic, partial curve, poor fit]. With `CCOCCCNC1=C(Cl)C(=O)c2ccccc2C1=O` the Potency was “inactive”. In the case of `COc1ccc(CCn2c(=S)[nH]c3cc(C(=O)NCc4ccco4)ccc3c2=O)cc1OC`, the Potency is reported as “inactive”. With `CC(=O)c1cnc2c(-c3ccccc3)cnn2c1C` the Potency was active: 20.6 µM. In the case of `Cc1ccc(OCC(=O)N2CCN(C(=O)Cc3ccccc3)CC2)cc1`, the Potency is reported as “inactive”. For `COc1cc(/C=N/NC(=O)c2cccc(N3CCCC3=O)c2)ccc1O`, the Potency was “inactive”. In the case of `CN1C(=O)C(O)(CC(=O)c2ccccc2O)c2cc(Br)ccc21` (stereo not given), the Potency is reported as inconclusive: 25.9 µM [cytotoxic, single point]. With `CNC(=O)CCc1[nH]c2ccccc2c1Sc1ccccc1` the Potency was inconclusive: 9.2 µM [cytotoxic, partial curve]. With `Cc1ccccc1OCCC(=O)NCCc1ccc(S(N)(=O)=O)cc1` the Potency was inconclusive: 23.1 µM [rising, partial curve, poor fit]. With `CCOc1ccc(C)cc1S(=O)(=O)n1cnc2ccccc21` the Potency was inconclusive: 18.4 µM [cytotoxic, single point]. With `CC(=O)Nc1ccc(NC(=O)CSc2nnc(-c3cc(C)[nH]n3)n2N)cc1` the Potency was inconclusive: 9.2 µM [rising, partial curve, poor fit]. For `CCN(CC)CCNc1ccc(CO)c2oc3ccccc3c(=O)c12`, the Potency was inconclusive: 10.3 µM [cytotoxic, partial curve, poor fit]. With `COc1ccc(OC)c(NC(=O)c2nc(S(=O)(=O)Cc3ccccc3)ncc2Cl)c1` the Potency was inconclusive: 2.91 µM [cytotoxic, partial curve, poor fit]. With `COc1ccc(NC(=O)CCc2nc3c(C)nn(-c4ccc(C)cc4)c3n(C)c2=O)c(OC)c1` the Potency was “inactive”. With `COc1cc2c(cc1OC)CN(C(=O)c1oc3ccccc3c1C)CC2` the Potency was inconclusive: 16.4 µM [cytotoxic, single point]. For `CCOC(=O)c1c(C2CC2)csc1NC(=O)CSCc1c(C)noc1C`, the Potency was inconclusive: 29.1 µM [cytotoxic, single point]. In the case of `CCS(=O)(=O)N1CCC(C(=O)NCCc2ccccc2)CC1`, the Potency is reported as “inactive”. In the case of `COc1ccc(N2C(=O)CSC23CCCCC3)cc1`, the Potency is reported as inconclusive: 18.4 µM [cytotoxic, single point]. In the case of `COCCN1Cc2cccc(C(=O)Nc3ccc(C(=O)OC)cc3)c2C1=O`, the Potency is reported as “inactive”. In the case of `Cc1cc2cc(CCNS(=O)(=O)c3ccc(Br)cc3)c(=O)[nH]c2cc1C`, the Potency is reported as “inactive”. In the case of `COC1=CC(=Cc2c(N)n3nc(CC(=O)N4CCCCC4)sc3nc2=O)C=C(OC)C1=O`, the Potency is reported as inconclusive: 29.1 µM [rising, single point]. With `O=C(O)c1cc(-n2nnnc2SCc2ccc([N+](=O)[O-])cc2)ccc1Cl` the Potency was inconclusive: 29.1 µM [rising, single point]. With `COc1ccccc1-c1ccc(Nc2cccc(C(C)=O)c2)nn1` the Potency was active: 13 µM. With `O=C(CCCc1nc(-c2ccccc2)no1)NCc1cccnc1` the Potency was inconclusive: 23.1 µM [cytotoxic, single point]. In the case of `O=C(COc1ccc(Cl)cc1)Nc1ccc(C(=O)O)cc1NC(=O)COc1ccc(Cl)cc1`, the Potency is reported as inconclusive: 29.1 µM [rising, single point]. For `COc1ccc(NS(=O)(=O)c2cc(N/C(=N\S(=O)(=O)c3ccccc3)c3ccc(F)cc3)ccc2Cl)cc1`, the Potency was active: 20.6 µM. In the case of `O=C(C[n+]1cccc(Br)c1)c1cc(Cl)ccc1Cl`, the Potency is reported as inconclusive: 29.1 µM [rising, single point]. For `COc1ccccc1-c1cccc(-c2nc(C(=O)Nc3nccs3)cc3c2[C@H](CCO)N(C(C)=O)C3)c1`, the Potency was inconclusive: 32.6 µM [cytotoxic, single point]. With `CCOC(=O)C1=C(COC(=O)c2cc(S(=O)(=O)N(C)C)ccc2C)NC(=O)NC1C` (stereo not given) the Potency was active: 23.1 µM. In the case of `O=[N+]([O-])c1cc(-c2cccnc2)n[nH]1`, the Potency is reported as “inactive”. With `CN(C)c1cccc(NC(=O)c2ccco2)c1` the Potency was “inactive”. With `COc1cccc(N=C2SC(CC(=O)Nc3ccccc3)C(=O)N2Cc2ccccn2)c1` (stereo not given) the Potency was inconclusive: 5.17 µM [cytotoxic, partial curve, poor fit]. In the case of `Cc1ccc2nc(-c3ccsc3)c(Nc3ccc(C(C)C)cc3)n2c1`, the Potency is reported as inconclusive: 20.6 µM [rising, single point]. In the case of `CCCCc1cc(O)c(CCCC)c(O)c1`, the Potency is reported as inconclusive: 20.6 µM [cytotoxic, single point]. In the case of `COc1ccc(N(CC(=O)NCc2ccc(F)cc2)C(=O)c2snc(C(N)=O)c2N)cc1`, the Potency is reported as inconclusive: 9.2 µM [cytotoxic, partial curve]. With `COc1ccccc1NC(=O)CN(c1ccc([N+](=O)[O-])cc1)S(=O)(=O)c1ccccc1` the Potency was inconclusive: 23.1 µM [cytotoxic, partial curve, poor fit]. With `CCc1nc(SCC(=O)N2CCCc3ccccc32)c2oc3ccccc3c2n1` the Potency was active: 10 µM. In the case of `O=C(NCCCN1CCOCC1)c1cccc(S(=O)(=O)Nc2ccccc2Cl)c1`, the Potency is reported as “inactive”. With `COc1cc(C(=O)Nc2ccc3c(c2)Cc2ccccc2-3)cc(OC)c1OC` the Potency was “inactive”. With `Fc1ccccc1NC(=S)N1CCN(C/C=C/c2ccccc2)CC1` the Potency was active: 16.4 µM. In the case of `O=S(=O)(c1ccc(NC(=S)NN=C(Cc2ccccc2)Cc2ccccc2)cc1)N1CCOCC1`, the Potency is reported as inconclusive: 23.1 µM [cytotoxic, single point]. With `CCOC(=O)C1CCN(C(=O)c2ccccc2NS(=O)(=O)c2ccc(F)c(F)c2)CC1` the Potency was inconclusive: 8.2 µM [cytotoxic, partial curve]. In the case of `CC(C)(C)C(=O)CSc1nc2ncc(Br)cc2[nH]1`, the Potency is reported as inconclusive: 18.4 µM [cytotoxic, single point]. With `CCc1nnc(NS(=O)(=O)c2ccc(NC(=O)c3cccc([N+](=O)[O-])c3)cc2)s1` the Potency was inconclusive: 32.6 µM [rising, single point]. In the case of `Fc1cc(Cl)ccc1NC1=NCCCCC1`, the Potency is reported as inconclusive: 20.6 µM [rising, partial curve, poor fit]. In the case of `O=C(Nc1cccc2ccccc12)N1CCN(Cc2ccc3c(c2)OCO3)CC1`, the Potency is reported as active: 16.4 µM. For `COc1ccc(CCN(Cc2cccs2)S(=O)(=O)c2ccc(S(=O)(=O)N(C)C3CCCCC3)cc2)cc1OC`, the Potency was inconclusive: 20.6 µM [cytotoxic, single point]. For `Cc1ccc(S(=O)(=O)N(C)CC(=O)NNC(=O)CCNS(=O)(=O)c2cccc(C)c2)cc1`, the Potency was “inactive”.
